Results of single-concentration screens

Chains of the proteins cited; added tags and fusions are not shown. Residues count along the entry.
UniProt Q4DA54, 1-478: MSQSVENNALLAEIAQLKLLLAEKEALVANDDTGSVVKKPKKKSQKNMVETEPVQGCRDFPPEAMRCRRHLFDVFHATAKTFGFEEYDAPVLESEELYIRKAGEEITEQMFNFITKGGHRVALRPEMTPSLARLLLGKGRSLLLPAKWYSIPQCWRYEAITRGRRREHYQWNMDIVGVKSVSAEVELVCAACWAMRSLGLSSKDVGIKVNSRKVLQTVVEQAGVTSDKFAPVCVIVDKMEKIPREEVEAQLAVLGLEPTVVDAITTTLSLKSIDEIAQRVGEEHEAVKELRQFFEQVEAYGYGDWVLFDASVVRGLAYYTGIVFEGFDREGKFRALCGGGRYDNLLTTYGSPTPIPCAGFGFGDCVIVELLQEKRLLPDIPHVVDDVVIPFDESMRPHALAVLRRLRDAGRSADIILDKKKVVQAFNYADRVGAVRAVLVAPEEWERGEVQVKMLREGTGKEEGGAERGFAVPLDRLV
UniProt Q8IDJ8, 1-583: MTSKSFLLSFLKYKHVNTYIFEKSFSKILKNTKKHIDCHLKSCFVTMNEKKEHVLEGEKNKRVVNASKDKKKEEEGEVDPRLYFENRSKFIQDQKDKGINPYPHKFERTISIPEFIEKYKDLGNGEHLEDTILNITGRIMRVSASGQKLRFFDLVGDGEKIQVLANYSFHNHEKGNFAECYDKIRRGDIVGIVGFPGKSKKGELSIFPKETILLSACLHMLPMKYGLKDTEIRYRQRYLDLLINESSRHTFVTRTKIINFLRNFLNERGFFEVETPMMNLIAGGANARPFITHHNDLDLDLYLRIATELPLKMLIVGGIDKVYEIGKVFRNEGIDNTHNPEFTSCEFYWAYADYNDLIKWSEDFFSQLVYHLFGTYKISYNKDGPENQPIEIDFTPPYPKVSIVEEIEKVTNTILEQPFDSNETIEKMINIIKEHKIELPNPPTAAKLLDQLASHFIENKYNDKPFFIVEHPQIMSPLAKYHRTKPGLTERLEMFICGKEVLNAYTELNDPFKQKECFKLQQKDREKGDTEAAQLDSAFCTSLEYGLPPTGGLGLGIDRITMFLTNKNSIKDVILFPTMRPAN

Measurements from “University of Dundee, Small-Polar-MMV Screening Library” (2021), ChEMBL document CHEMBL3988442.

A: 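Histidine-tRNA ligase, Trypanosoma cruzi CL Brener (UniProt Q4DA54). Enzyme assay of histidyl-tRNA synthetase; the read-out is not stated. Concentration: 30 µM. Higher reads as stronger inhibition (inferred: compounds with an IC50 in retests scored well above the rest). About 69,000 compounds were tested under these conditions; 0.045% (about 31) showed 50% or more at least once.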
B: 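Enzyme assay of the cytosolic lysyl-tRNA synthetase in 384-well plates, read by luminescence. Target: Lysine-tRNA ligase, Plasmodium falciparum 3D7 (UniProt Q8IDJ8). Concentration: 30 µM. Higher reads as stronger inhibition, judged from the few compounds that gave an IC50. Size under these conditions: about 69,000 compounds, about 49 of them at 50% or above in at least one test.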

Results are given as percent effect.
How 0% and 100% were set is not recorded. Most values in the screen are low, and negative values occur.
The compounds are a random part of those screened.

| structure | A | B |
|---|---|---|
| `CC(C)CC(=O)N1CC[C@H]2N(C)CC[C@@]2(C(=O)Nc2ccccc2)CC1` | -6.098 | 2.313 |
| `CN1CCC(CNC(=O)Cc2ccc(N(C)C)cc2)CC1` | 4.124 | 8.378 |
| `CCNC(=O)N1CCC(Cc2cccc(C(N)=O)c2)C1` (centres undefined) | -2.513 | -2.047 |
| `Cc1cc(C)c(CNC(=O)CC2CCCO2)c(=O)[nH]1` (centres undefined) | 9.412 | 1.494 |
| `CCCN1CCCN(c2ccc(-n3ccc(C)n3)nn2)CC1` | 4.433 | 6.855 |
| `c1cc(-c2nc(C3CCN(Cc4ccsc4)CC3)no2)ccn1` | 0.7463 | -1.022 |
| `OCc1c(Cl)ncn1-c1ccccc1` | 7.071 | 1.596 |
| `CCC(CC)n1ncc(C(=O)NS(=O)(=O)c2ccsc2)c1C` | -2.439 | 0.2655 |
| `Cn1cccc1C(=O)N1CCn2nnc(COc3cccnc3)c2C1` | 4.202 | -1.184 |
| `Cc1cc(CN(C)C(=O)c2cc3c([nH]c2=O)CCCC3=O)no1` | 1.149 | 4.385 |
| `Cc1nc(C2CCCN(C(=O)CCCn3cccn3)C2)no1` (centres undefined) | -0.7634 | 1.542 |
| `CCCc1cc(CNC2CCN(c3cc(C(C)C)nc(C)n3)CC2)on1` | 11 | 8.71 |
| `CC[C@@H](NC(C)=O)C(=O)NCc1cccnc1Oc1ccccc1OC` | 5.291 | 7.322 |
| `Cn1cc(-c2cc(-c3cnn(C)c3)n(CC(=O)NC3CC3)n2)cn1` | 5.941 | -0.4931 |
| `COc1cccc(CCn2ccnc2-c2cn(C3CCNCC3)nn2)c1` | 13.07 | -2.352 |
| `O=C(NCC(F)(F)F)C1CSCN1S(=O)(=O)c1ccccc1F` (centres undefined) | 2.817 | -3.101 |
| `CCC(C(=O)NCc1ccncc1)N(c1cccc(Cl)c1)S(C)(=O)=O` (centres undefined) | 5.587 | 2.892 |
| `O=S1(=O)COCCN1CCOc1ccccc1` | 7.143 | 7.493 |
| `Cc1nc(CN(C)C(=O)CN(C)C)nc2c1CCC(=O)N2CCC(C)C` | 1.429 | -0.8578 |
| `Cn1cc(-c2cc(C(F)(F)F)nn2CCC#N)cn1` | -5.804 | 5.417 |
| `Cc1cccc(CN2C[C@@H]3CN(C(=O)c4cnoc4C)C[C@@H]3C2=O)n1` | 4.854 | 1.725 |
| `CCN(C(C)=O)C1CCN(c2nccc(CCC(F)(F)F)n2)C1` (centres undefined) | 5.806 | 2.426 |
| `CC(NC(=O)N(C)Cc1cnn(C)c1)c1nncn1C` (centres undefined) | 0 | 0.1942 |
| `Cc1nc(CN2CCCC2C(=O)OCc2ccccc2)oc1C` (centres undefined) | 3.922 | 5.118 |
| `CC1Cc2cc(-c3cncn3CC(=O)NC(C)(C)C)ccc2N1C` (centres undefined) | 15.21 | 1.717 |
| `O=C(C1CCCO1)N1CCc2nnc(Cn3cccc3)n2CC1` (centres undefined) | 5.063 | 12.22 |
| `Cc1n[nH]c(C2CN(C(=O)c3ccon3)CCO2)n1` (centres undefined) | 0 | 3.964 |
| `CCCc1cc(=O)n(CC(=O)NC(C)C)c(-n2nc(C)cc2C)n1` | 3.518 | -4.128 |
| `CCc1nc(CNC2CCN(S(C)(=O)=O)CC2)cs1` | 5.128 | 0.1303 |
| `Cc1ccc(CNC(=O)CN(CCC(N)=O)c2ccc(F)cc2)cc1` | 6.931 | 7.857 |
| `O=C(c1cc(F)ccc1F)C1CCN(C(=O)c2ccc(=O)[nH]n2)CC1` | 3.396 | 5.532 |
| `CC1=C[C@@H](CNS(C)(=O)=O)[C@H](C(C)C)C[C@H]1CC(=O)NCCN(C)C` | 9.901 | 1.235 |
| `COc1ccc(C(=O)N2CC(=O)N(CC3CC3)CC(O)C2)cc1` (centres undefined) | 11.24 | 4.325 |
| `COc1c(CNC(C)C(=O)NC2CCCC2)c(C(C)C)nn1C` (centres undefined) | 8.995 | 11.59 |
| `Cn1ccc(CN2CCC(Oc3ccccc3)CC2)cc1=O` | 5.344 | 2.121 |
| `c1ccc2sc(N3CCN(c4ncnc5c4CCC5)CC3)nc2c1` | 12.99 | 4.109 |
| `Cc1noc(C)c1CN1C[C@@H](C(=O)O)[C@H](c2ccccc2)C1` | 1.538 | 6.837 |
| `O=C([C@H]1CN(Cc2nccs2)C[C@H]2OCC[C@@H]12)N1CCCCO1` | 5.102 | 3.433 |
| `CN(C(=O)Nc1nncs1)C1CCN(c2ccccc2Cl)C1=O` (centres undefined) | 0 | 6.625 |
| `Cc1ccc(NCc2cncc3c2CCN(C(=O)C2CC=CC2)C3)nn1` | 7.027 | -1.068 |
| `CCCc1noc(CCC(=O)N2CCCC2c2ccc(OC)cc2)n1` (centres undefined) | 1.714 | 1.815 |
| `Cc1nonc1CN(C)Cc1cnn(-c2ccc(F)cc2)c1` | 1.538 | 2.063 |
| `CCc1n[nH]c(C2CN(C(=O)CCc3cccs3)CCO2)n1` (centres undefined) | -3.383 | 1.137 |
| `CC(=O)CN1CCC2(CC1)c1ccccc1[C@@H](N1CCSCC1)[C@@H]2O` | 6.18 | 3.715 |
| `O=C(c1cocn1)N1C[C@@H]2CN(Cc3ccco3)CCO[C@@H]2C1` | 0.9804 | 6.634 |
| `COc1cccc(-c2cccc(-c3ccn(CC4COCCO4)n3)c2)n1` (centres undefined) | 1.299 | -2.971 |
| `O=C(Cc1ccncc1)N1C[C@@H]2CC[C@H](C1)N(Cc1ccccc1)C2=O` | 3.488 | 0.1891 |
| `O=C(Nc1ccccc1)[C@H]1CN2CCC1C[C@@H]2Cn1cc(CO)nn1` (some centres undefined) | 5.941 | 2.189 |
| `c1coc(-c2nc(CN3CCOC(Cn4cccn4)C3)cs2)c1` (centres undefined) | 3.093 | -0.7869 |
| `O=C(NC1CCCC1)[C@@H]1C[C@@H]2CCN(Cc3ccoc3)C[C@H]2O1` | 8.466 | 2.796 |
| `CC(O)CN1CCC(CNCc2cn(-c3ccccc3)nn2)CC1` (centres undefined) | 8.621 | 6.005 |

Once more, the final 5:

| structure | A | B |
|---|---|---|
| `O=C(Cc1ccncc1)N1C[C@@H]2CC[C@H](C1)N(Cc1ccccc1)C2=O` | 3.488 | 0.1891 |
| `O=C(Nc1ccccc1)[C@H]1CN2CCC1C[C@@H]2Cn1cc(CO)nn1` (some centres undefined) | 5.941 | 2.189 |
| `c1coc(-c2nc(CN3CCOC(Cn4cccn4)C3)cs2)c1` (centres undefined) | 3.093 | -0.7869 |
| `O=C(NC1CCCC1)[C@@H]1C[C@@H]2CCN(Cc3ccoc3)C[C@H]2O1` | 8.466 | 2.796 |
| `CC(O)CN1CCC(CNCc2cn(-c3ccccc3)nn2)CC1` (centres undefined) | 8.621 | 6.005 |